Measured values as given in patent US10117916B2, “Peptides and combination of peptides for use in immunotherapy against CLL and other cancers” (immatics biotechnologies GmbH, priority 2015, dated 2018).

Test system: NSCLC tumor samples
Experiment: Absolute quantitation of TUMAP copies per cell by nanoLC-MS/MS
Parameters: species or system human
Settings: NSCLC tumor samples (so in the source)

Substance | Copy Number Category (median number of copies per cell)
62 (GIIDGSPRL; listed as Homo sapiens) [compound 62] | + (<100 = +)
153 (SLLAELHVL; listed as Homo sapiens) [compound 153] | ++ (> = 100 = ++)
